In the supplement of paper PMC10849652:
The list shows a part of the results.

Chains of the proteins cited; added tags and fusions are not shown. Lines headed by an entry give the natural chain unless they say otherwise; changes in a name come on top.
UniProt P78317: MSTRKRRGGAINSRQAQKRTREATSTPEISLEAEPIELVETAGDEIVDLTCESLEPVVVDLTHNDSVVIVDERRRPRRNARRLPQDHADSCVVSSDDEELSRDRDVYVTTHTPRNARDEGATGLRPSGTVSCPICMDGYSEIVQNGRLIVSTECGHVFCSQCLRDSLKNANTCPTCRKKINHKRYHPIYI
UniProt Q6ZS11: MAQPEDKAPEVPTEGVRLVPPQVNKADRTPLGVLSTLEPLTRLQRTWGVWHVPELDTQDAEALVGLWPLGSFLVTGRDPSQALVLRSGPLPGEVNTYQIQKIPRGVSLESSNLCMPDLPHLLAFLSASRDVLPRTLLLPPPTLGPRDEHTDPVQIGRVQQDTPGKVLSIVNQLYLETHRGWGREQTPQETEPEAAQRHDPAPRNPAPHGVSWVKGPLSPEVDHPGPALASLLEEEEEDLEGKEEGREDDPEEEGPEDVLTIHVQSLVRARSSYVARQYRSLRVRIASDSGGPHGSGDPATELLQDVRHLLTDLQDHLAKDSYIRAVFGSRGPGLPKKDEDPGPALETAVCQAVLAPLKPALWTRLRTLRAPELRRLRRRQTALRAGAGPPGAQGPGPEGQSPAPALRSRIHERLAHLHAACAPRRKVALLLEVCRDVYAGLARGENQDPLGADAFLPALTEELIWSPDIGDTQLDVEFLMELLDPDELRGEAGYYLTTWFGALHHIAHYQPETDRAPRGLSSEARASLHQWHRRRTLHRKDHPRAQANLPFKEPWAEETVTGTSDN
UniProt Q9H920: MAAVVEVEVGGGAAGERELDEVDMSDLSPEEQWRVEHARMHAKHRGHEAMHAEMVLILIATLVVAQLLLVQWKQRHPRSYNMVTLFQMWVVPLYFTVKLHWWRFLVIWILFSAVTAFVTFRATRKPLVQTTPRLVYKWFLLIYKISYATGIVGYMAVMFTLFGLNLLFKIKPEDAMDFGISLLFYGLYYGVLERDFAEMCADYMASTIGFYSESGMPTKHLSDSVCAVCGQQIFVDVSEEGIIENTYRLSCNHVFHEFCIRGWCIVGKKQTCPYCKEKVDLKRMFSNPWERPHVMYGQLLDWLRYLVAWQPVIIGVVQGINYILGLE
UniProt Q13546: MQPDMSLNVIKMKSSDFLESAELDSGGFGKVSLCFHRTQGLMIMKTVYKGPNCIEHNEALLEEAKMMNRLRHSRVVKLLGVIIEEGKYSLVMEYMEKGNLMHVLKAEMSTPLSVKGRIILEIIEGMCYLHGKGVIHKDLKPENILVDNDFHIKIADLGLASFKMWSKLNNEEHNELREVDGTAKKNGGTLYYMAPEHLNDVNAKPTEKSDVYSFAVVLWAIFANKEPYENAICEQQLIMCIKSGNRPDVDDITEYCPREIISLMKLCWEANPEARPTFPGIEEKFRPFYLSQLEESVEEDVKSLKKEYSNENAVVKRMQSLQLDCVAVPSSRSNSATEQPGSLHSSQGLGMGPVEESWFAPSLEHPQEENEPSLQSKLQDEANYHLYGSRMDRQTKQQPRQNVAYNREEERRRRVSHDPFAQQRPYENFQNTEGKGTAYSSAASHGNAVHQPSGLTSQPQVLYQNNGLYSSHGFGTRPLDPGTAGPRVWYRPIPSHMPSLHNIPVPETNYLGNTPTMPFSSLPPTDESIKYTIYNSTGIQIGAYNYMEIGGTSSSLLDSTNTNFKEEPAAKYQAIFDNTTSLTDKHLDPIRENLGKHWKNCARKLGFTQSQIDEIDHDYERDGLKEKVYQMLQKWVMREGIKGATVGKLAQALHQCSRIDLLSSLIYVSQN
UniProt Q9Y4L5, whole entry, looked up: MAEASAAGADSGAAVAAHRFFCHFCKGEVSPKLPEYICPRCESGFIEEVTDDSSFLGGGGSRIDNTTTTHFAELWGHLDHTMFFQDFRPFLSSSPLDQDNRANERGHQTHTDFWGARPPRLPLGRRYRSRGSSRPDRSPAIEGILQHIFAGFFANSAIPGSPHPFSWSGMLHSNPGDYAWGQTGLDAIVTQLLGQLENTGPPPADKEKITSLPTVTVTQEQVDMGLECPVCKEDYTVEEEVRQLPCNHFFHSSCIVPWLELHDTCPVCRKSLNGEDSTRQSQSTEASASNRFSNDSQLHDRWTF
UniProt Q96GF1: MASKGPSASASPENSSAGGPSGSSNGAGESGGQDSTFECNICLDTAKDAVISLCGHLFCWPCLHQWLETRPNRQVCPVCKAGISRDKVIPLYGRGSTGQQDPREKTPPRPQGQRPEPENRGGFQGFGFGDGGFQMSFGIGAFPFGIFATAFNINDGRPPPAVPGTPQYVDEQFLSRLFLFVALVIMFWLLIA
UniProt Q9HAU8: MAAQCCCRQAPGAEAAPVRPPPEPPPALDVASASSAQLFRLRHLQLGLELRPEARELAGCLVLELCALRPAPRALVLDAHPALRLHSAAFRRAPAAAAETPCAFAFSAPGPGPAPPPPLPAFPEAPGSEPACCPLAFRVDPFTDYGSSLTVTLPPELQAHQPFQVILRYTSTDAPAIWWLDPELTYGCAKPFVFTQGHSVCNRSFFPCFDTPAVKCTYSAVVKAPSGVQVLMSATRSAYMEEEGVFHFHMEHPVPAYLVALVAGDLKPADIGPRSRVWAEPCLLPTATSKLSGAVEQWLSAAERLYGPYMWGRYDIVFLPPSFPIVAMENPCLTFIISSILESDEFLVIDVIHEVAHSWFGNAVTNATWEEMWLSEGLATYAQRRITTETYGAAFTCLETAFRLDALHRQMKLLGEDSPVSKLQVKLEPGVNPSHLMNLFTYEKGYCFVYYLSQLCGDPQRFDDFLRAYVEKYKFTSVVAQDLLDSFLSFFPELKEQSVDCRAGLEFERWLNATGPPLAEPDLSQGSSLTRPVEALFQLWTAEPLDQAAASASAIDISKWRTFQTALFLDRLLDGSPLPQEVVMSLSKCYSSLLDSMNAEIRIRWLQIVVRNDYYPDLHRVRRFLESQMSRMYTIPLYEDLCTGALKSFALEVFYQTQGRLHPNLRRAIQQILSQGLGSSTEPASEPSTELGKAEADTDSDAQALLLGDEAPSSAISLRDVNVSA
UniProt O76064: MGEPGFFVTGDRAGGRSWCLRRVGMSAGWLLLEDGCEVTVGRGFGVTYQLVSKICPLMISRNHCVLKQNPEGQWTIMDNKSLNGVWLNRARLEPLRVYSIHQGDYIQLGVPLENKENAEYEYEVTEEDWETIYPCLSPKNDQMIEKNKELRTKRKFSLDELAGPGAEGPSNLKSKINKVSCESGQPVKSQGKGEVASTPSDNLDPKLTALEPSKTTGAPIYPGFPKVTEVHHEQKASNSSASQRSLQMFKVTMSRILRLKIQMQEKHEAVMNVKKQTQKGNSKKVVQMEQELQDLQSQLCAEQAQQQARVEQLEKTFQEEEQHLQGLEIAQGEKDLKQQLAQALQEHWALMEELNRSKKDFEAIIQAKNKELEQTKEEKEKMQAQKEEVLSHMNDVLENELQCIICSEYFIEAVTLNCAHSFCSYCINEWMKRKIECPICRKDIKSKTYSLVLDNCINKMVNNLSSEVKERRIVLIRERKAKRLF
UniProt Q99496: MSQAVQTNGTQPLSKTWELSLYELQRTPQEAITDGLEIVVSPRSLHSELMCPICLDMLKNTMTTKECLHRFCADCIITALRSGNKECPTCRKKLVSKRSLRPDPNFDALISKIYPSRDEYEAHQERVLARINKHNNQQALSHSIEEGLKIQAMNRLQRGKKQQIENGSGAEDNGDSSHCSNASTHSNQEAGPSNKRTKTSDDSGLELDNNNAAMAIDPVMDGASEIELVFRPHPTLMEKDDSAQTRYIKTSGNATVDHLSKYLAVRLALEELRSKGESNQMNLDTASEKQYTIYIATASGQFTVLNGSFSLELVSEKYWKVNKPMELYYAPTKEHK
UniProt Q969X0: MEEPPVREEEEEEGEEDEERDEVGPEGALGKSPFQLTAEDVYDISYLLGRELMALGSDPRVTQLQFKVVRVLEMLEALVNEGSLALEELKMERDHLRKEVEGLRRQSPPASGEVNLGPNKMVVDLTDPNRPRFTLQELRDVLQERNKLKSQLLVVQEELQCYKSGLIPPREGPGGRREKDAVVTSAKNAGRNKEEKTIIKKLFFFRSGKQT
UniProt Q9BXT8: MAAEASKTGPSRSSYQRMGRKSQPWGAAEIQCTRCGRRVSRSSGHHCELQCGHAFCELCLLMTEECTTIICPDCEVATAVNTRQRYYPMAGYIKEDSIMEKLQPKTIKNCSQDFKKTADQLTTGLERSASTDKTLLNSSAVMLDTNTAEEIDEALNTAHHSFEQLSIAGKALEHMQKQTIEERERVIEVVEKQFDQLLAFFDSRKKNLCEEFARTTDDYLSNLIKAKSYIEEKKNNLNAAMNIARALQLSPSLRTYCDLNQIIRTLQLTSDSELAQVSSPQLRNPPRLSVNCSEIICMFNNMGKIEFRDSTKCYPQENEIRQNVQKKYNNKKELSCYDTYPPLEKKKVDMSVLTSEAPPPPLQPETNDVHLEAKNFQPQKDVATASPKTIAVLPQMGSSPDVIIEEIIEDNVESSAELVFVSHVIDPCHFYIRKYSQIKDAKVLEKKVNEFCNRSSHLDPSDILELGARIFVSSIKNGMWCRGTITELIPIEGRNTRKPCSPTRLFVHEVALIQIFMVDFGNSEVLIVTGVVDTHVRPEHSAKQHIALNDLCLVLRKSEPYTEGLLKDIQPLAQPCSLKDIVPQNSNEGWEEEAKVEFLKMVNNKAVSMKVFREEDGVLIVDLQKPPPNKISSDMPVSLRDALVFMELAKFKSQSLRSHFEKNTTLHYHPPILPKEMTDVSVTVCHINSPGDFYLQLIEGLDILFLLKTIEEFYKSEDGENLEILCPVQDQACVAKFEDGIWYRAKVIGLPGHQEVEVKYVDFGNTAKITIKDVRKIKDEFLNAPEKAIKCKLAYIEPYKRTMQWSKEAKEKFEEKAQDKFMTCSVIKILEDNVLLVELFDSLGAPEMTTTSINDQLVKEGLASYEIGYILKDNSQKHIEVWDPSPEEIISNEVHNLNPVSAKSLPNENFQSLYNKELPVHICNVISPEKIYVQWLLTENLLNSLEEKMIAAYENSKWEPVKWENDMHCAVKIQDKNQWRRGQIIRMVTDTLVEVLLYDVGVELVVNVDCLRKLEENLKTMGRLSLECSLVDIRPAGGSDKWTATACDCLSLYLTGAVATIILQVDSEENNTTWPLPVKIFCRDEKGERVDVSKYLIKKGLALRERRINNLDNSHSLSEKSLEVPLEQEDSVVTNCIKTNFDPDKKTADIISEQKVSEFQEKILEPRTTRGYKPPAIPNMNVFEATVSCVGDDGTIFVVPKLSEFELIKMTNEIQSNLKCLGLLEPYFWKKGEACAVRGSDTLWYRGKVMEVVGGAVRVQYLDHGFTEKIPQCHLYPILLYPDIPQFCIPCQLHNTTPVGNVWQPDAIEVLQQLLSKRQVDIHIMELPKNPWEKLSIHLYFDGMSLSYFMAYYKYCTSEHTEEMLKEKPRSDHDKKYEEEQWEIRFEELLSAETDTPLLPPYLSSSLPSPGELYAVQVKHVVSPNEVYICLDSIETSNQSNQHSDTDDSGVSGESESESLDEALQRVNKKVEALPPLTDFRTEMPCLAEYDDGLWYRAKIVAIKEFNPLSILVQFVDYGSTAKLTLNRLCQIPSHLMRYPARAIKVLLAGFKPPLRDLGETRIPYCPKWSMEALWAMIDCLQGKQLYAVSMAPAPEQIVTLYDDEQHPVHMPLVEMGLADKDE
UniProt P0C7M4: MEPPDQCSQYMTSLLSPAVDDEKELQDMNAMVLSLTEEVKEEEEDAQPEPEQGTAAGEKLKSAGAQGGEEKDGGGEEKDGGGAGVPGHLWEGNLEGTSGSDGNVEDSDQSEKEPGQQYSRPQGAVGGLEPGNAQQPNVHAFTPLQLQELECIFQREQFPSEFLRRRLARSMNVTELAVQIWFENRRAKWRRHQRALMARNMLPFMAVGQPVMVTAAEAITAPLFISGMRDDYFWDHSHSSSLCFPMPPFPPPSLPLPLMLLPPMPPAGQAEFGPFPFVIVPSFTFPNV
UniProt Q96LT9: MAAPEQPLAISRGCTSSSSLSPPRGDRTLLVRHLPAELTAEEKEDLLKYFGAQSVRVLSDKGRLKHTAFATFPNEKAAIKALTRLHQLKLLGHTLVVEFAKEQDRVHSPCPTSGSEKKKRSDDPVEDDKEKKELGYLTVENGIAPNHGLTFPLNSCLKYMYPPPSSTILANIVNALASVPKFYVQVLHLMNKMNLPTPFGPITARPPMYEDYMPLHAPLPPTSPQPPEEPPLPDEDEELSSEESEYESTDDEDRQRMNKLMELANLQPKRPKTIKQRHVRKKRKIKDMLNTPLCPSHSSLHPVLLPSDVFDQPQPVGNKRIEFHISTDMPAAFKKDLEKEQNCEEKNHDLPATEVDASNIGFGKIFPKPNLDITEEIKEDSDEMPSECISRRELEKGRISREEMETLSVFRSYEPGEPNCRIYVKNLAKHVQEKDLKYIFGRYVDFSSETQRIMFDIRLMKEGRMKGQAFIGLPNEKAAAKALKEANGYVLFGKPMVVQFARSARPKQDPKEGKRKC

What was measured:
Assay in all cases: log2 fold change, soluble protein after heating vs DMSO (PISA); higher = thermal stabilisation; K562 lysate, 10 uM; active = over 0.2 and 3.5 SD of the protein, either way, in both replicates (recomputed)
[1] = compound: C1=CC=C(C=C1)[C@H](COC2=CC3=C(C=C2)NC(=O)N3)NC(=O)C4=CC=CN(C4=O)CC5=CC(=C(C=C5)F)F
Method in brief: (§1)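 A 30 min treatment with 10 μM compound was applied to crude K562 extract at 1 mg/mL protein in PBS pH 7.4 with 1 mM MgCl2. Heating for 3 min spanned 48°C-58°C, after which aliquots were pooled, adjusted to 0.5% NP-40 at 4°C and spun at 21,000xg for 90 min. TMTpro 16plex LC-MS/MS of the supernatant, with channel sums equalised, gave values recorded as log-two fold change in thermal stability against solvent controls, from duplicates.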

[2] = compound: CC1=C(SC2=C1C(=N[C@H](C3=NN=C(N32)C)CC(=O)N)C4=CC=C(C=C4)Cl)C
Method in brief: as §1

[3] = compound: CC1=C2C(=CC=C1)N=C(N(C2=O)C3=CC=CC=C3C)CN4C=NC5=C(N=CN=C54)N
Method in brief: as §1

[4] = compound: c1ccc([C@@H]2C[C@H]2NC2CCNCC2)cc1
Method in brief: as §1

[5] = compound: Cc1sc2c(c1C)C(c1ccc(Cl)cc1)=N[C@@H](CC(=O)OC(C)(C)C)c1nnc(C)n1-2
Method in brief: as §1

Target | log2 fold change [1] | log2 fold change [2] | log2 fold change [3] | log2 fold change [4] | log2 fold change [5]
RNF4 (UniProt P78317) | inactive: 0.092 | inactive: 0.076 | inactive: 0.059 | inactive: -0.12 | 
RINL (UniProt Q6ZS11) | inactive: -0.008 | inactive: 0.016 |  | inactive: 0.205 | inactive: -0.125
RNF121 (UniProt Q9H920) | inactive: -0.109 | inactive: -0.032 |  | inactive: -0.124 | inactive: 0.09
RIPK1 (UniProt Q13546) | inactive: -0.019 | inactive: -0.015 | inactive: -0.009 | inactive: -0.021 | inactive: -0.04
RNF115 (UniProt Q9Y4L5) |  |  | inactive: 0.17 | inactive: -0.068 | 
RNF185 (UniProt Q96GF1) | inactive: -0.116 | inactive: -0.075 |  | inactive: 0.081 | 
RNPEPL1 (UniProt Q9HAU8) |  |  | inactive: -0.334 | inactive: 0.102 | inactive: -0.024
RNF8 (UniProt O76064) | inactive: -0.152 | inactive: -0.083 |  | inactive: -0.046 | inactive: 0.095
RNF2 (UniProt Q99496) |  |  | inactive: 0.03 | inactive: 0.343 | inactive: -0.091
RILPL2 (UniProt Q969X0) | inactive: -0.231 | inactive: -0.012 |  | inactive: -0.115 | 
RNF17 (UniProt Q9BXT8) | inactive: -0.241 | active: 1 |  | inactive: 0.451 | inactive: 0.129
RPL32 (UniProt D3YTI8) |  |  |  |  | inactive: -0.031
RHOXF2B (UniProt P0C7M4) |  |  | inactive: 0.032 |  | inactive: 0.029
RNF167 (UniProt Q9H6Y7) | inactive: -0.026 | inactive: 0.002 |  | inactive: -0.086 | inactive: 0.072
RPL35A (UniProt P18077) | inactive: -0.003 | inactive: -0.029 | inactive: 0.022 | inactive: -0.105 | inactive: 0.096
RNPC3 (UniProt Q96LT9) |  |  |  | inactive: -0.034 | inactive: -0.029

Record cards, from the list above.
RPL32 (UniProt D3YTI8) as listed: log2 fold change [5]: inactive: -0.031
RHOXF2B (UniProt P0C7M4) as listed: log2 fold change [3]: inactive: 0.032; log2 fold change [5]: inactive: 0.029
